Earlier results, collected in patent publication US20100104622A1, “Ligand Targeted Nanocapsules for the delivery of RNAi and other Agents” (priority 2008, published 2010).
At least one structure is not confirmed: it was looked up by name or label, or the drawing left a doubt.

Test system: advanced stage melanoma
Settings: melanoma patients

## CN(C)/N=N/c1[nH]cnc1C(N)=O [Dacarbazine]
  response rates: 10-20%
